PubChem BioAssay AID1224826 – NIAID – 2016
In all, the deposit lists about 17,000 reagents; shown is an unselected part. About 1,110 of all reagents (6.6%) count as active. 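Active means lowered or raised reporter signal; replicate intensities are raw and not normalised per plate.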 Entries without a mark were called inactive.

Screen: 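Genes that change LPS-induced Tnf promoter activity in mouse macrophages when knocked down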 (primary screen)
System: RAW264.7 G9 macrophages from mouse bearing reporters for p65 (GFP) and the Tnf promoter (mCherry)
Knock-down reagent: siRNA pool against mouse genes, 100 nM
Time to read-out: 16 h of LPS stimulation, after 2 days of siRNA transfection
Conditions: bacterial lipopolysaccharide (Salmonella minnesota R595), 10 ng/ml
Measured: 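Imaged Tnf reporter mCherry in nuclei, minus background, normalised per plate to the median and expressed as robust z-scores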
Reading the numbers: Tnf reporter robust z-score: higher = stronger Tnf promoter reporter signal after LPS; Tnf reporter intensity: higher = stronger Tnf promoter reporter signal
Hit rule: 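a well counts as active at a score of -1.3 or below (Tlr4 knock-down control median) or above 3 (raised signal); controls and wells holding fewer than 50 cells are excluded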
Calls: active = Tnf reporter clearly lowered or raised; inactive = no clear change in Tnf reporter

| gene knocked down | Tnf reporter robust z-score | fewer than 50 cells in well | Tnf reporter intensity, replicate 1 | Tnf reporter intensity, replicate 2 |
| --- | --- | --- | --- | --- |
| Htr3a (GeneID 15561) | 0.36 | enough cells in well | 255 | 306 |
| Taf4b (GeneID 72504) | 0.7 | enough cells in well | 171 | 222 |
| Slc35e3 (GeneID 215436) | – | fewer than 50 cells per well; well left out of calls | 52.8 | 57.8 |
| Atrip (GeneID 235610) | – | fewer than 50 cells per well; well left out of calls | 77.3 | 90.4 |
| Or52ae7 (GeneID 258751) | 0.65 | enough cells in well | 143 | 114 |
| Or6c209 (GeneID 258929) | – | fewer than 50 cells per well; well left out of calls | 37.4 | 60.8 |
| Vat1l (GeneID 270097) | -1.31 (active) | enough cells in well | 93.7 | 125 |
| Nopchap1 (GeneID 28109) | -0.04 | enough cells in well | 217 | 138 |
| Angptl4 (GeneID 57875) | -0.06 | enough cells in well | 152 | 180 |
| Serpini1 (GeneID 20713) | 0.05 | enough cells in well | 290 | 214 |
| Zfp280d (GeneID 235469) | -1.05 | enough cells in well | 106 | 165 |
| Dyrk1a (GeneID 13548) | -0.91 | enough cells in well | 146 | 101 |
| Apoa1 (GeneID 11806) | 1.67 | enough cells in well | 252 | 277 |
| Rhobtb1 (GeneID 69288) | -0.46 | enough cells in well | 243 | 186 |
| Mbl2 (GeneID 17195) | -0.46 | enough cells in well | 207 | 187 |
| Tmem131l (GeneID 229473) | -2.03 (active) | enough cells in well | 65.4 | 42.9 |
| Txlnb (GeneID 378431) | – | fewer than 50 cells per well; well left out of calls | 282 | 125 |
| Pipox (GeneID 19193) | 1.28 | enough cells in well | 209 | 162 |
| Ly6c1 (GeneID 17067) | -0.09 | enough cells in well | 241 | 94.8 |
| Pcx (GeneID 18563) | 0.21 | enough cells in well | 273 | 183 |
| Sox4 (GeneID 20677) | 0.22 | enough cells in well | 290 | 240 |
| Pold1 (GeneID 18971) | -0.66 | enough cells in well | 244 | 104 |
| Ddb2 (GeneID 107986) | -0.2 | enough cells in well | 191 | 217 |
| Med8 (GeneID 80509) | – | fewer than 50 cells per well; well left out of calls | 134 | 47.6 |
| Bmp7 (GeneID 12162) | -0.57 | enough cells in well | 110 | 141 |
| Cops6 (GeneID 26893) | -0.16 | enough cells in well | 194 | 148 |
| A830073O21Rik (GeneID 320262) | -0.21 | enough cells in well | 145 | 158 |
| Bloc1s1 (GeneID 14533) | 0.19 | enough cells in well | 135 | 148 |
| Akap8 (GeneID 56399) | 1.2 | enough cells in well | 293 | 207 |
| Bpifb5 (GeneID 228802) | -1.38 (active) | enough cells in well | 113 | 108 |
| Zbtb12 (GeneID 193736) | -0.32 | enough cells in well | 184 | 185 |
| Or5al5 (GeneID 257950) | -0.12 | enough cells in well | 178 | 113 |
| Sh3rf3 (GeneID 237353) | -0.79 | enough cells in well | 114 | 48.8 |
| Zhx3 (GeneID 320799) | -0.71 | enough cells in well | 82.5 | 109 |
| Xpnpep2 (GeneID 170745) | 0.04 | enough cells in well | 188 | 286 |
| Pex11b (GeneID 18632) | -0.15 | enough cells in well | 257 | 150 |
| Drd3 (GeneID 13490) | -0.83 | enough cells in well | 167 | 147 |
| Stk3 (GeneID 56274) | -0.69 | enough cells in well | 137 | 99.9 |

Next part; the last 3 above are carried over.
| gene knocked down | Tnf reporter robust z-score | fewer than 50 cells in well | Tnf reporter intensity, replicate 1 | Tnf reporter intensity, replicate 2 |
| --- | --- | --- | --- | --- |
| Pex11b (GeneID 18632) | -0.15 | enough cells in well | 257 | 150 |
| Drd3 (GeneID 13490) | -0.83 | enough cells in well | 167 | 147 |
| Stk3 (GeneID 56274) | -0.69 | enough cells in well | 137 | 99.9 |
| Xkr6 (GeneID 219149) | 0.44 | enough cells in well | 210 | 268 |
| Svs6 (GeneID 20945) | – | fewer than 50 cells per well; well left out of calls | 57 | 89.8 |
| Tbc1d9 (GeneID 71310) | 0.04 | enough cells in well | 197 | 118 |
| Xpnpep1 (GeneID 170750) | -0.85 | enough cells in well | 155 | 174 |
| Rmdn1 (GeneID 66302) | 0.94 | enough cells in well | 324 | 89.6 |
| Col5a2 (GeneID 12832) | 0.07 | enough cells in well | 257 | 208 |
| Or7c70 (GeneID 258305) | 0.79 | enough cells in well | 172 | 193 |
| Usp30 (GeneID 100756) | -0.18 | enough cells in well | 198 | 237 |
| G6pc1 (GeneID 14377) | -0.37 | enough cells in well | 176 | 251 |
| Cbx2 (GeneID 12416) | -0.66 | enough cells in well | 76.7 | 207 |
| Lnx2 (GeneID 140887) | 1.07 | enough cells in well | 252 | 204 |
| Or7g33 (GeneID 258908) | -0.71 | enough cells in well | 88.2 | 87.7 |
| Ssbp2 (GeneID 66970) | – | fewer than 50 cells per well; well left out of calls | 75.2 | 51.3 |
| Or6c76 (GeneID 258321) | 3.01 (active) | enough cells in well | 159 | 289 |
| 4931431C16Rik (GeneID 74364) | – | fewer than 50 cells per well; well left out of calls | 244 | 96.6 |
| Mxd4 (GeneID 17122) | -0.13 | enough cells in well | 259 | 191 |
| Lmf1 (GeneID 76483) | – | fewer than 50 cells per well; well left out of calls | 321 | 65.9 |
| Sh3kbp1 (GeneID 58194) | 0.39 | enough cells in well | 297 | 260 |
| PLEKHK1 | – | fewer than 50 cells per well; well left out of calls | 41.4 | 46.6 |
| Tecr (GeneID 106529) | -0.89 | enough cells in well | 152 | 129 |
